± gives the standard deviation of the averaged measurements. Only a part is listed here, and it is no random draw. Small differences around the control level are noise.
Compound: Nc1ncnc2c1ncn2[C@@H]1O[C@H](COP(=O)(O)OP(=O)(O)NP(=O)(O)O)[C@@H](O)[C@H]1O [adenylyl imidodiphosphate]
Test: NP40-soluble protein abundance relative to vehicle (solubility fold change) (ratio); higher = more soluble protein in presence of AMP-PNP
Method in brief: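 Jurkat crude lysate prepared with a Dounce homogeniser was treated at eight concentrations spanning 0.1 to 10 mM, 10 min at room temperature then 3 min at 37 °C. Solubilisation with 0.8% NP40 and benzonase and ultracentrifugation preceded TMT labelling of the supernatant for LC-MS/MS. Fold change against the detergent-processed vehicle was determined per replicate from vsn-normalised intensities, across three independent experiments.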

Protein sequences, listed by entry. Tags and fused reporters are not part of them. Lines headed by an entry give the natural chain unless they say otherwise; changes in a name come on top.
UniProt Q13724: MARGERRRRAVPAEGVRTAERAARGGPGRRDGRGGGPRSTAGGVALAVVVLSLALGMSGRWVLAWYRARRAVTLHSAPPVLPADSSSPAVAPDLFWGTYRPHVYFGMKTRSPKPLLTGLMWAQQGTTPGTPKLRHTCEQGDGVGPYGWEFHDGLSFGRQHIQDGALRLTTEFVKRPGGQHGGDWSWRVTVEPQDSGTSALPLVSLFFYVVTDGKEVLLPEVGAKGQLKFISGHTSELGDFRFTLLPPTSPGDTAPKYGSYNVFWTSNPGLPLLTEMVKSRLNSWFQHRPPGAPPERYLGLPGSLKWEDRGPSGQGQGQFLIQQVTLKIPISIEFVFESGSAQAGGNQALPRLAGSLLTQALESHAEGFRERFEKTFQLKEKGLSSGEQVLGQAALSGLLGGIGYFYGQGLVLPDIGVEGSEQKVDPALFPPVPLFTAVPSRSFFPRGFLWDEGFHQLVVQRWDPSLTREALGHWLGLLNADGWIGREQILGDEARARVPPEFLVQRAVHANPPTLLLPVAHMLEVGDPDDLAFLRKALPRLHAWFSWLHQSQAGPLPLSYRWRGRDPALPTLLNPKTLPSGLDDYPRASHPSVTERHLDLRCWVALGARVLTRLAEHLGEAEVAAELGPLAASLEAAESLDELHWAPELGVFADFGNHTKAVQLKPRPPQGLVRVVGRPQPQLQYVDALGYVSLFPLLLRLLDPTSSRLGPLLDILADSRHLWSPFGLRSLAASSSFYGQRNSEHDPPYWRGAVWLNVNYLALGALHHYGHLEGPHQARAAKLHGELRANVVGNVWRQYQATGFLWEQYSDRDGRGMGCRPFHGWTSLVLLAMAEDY
UniProt P55209: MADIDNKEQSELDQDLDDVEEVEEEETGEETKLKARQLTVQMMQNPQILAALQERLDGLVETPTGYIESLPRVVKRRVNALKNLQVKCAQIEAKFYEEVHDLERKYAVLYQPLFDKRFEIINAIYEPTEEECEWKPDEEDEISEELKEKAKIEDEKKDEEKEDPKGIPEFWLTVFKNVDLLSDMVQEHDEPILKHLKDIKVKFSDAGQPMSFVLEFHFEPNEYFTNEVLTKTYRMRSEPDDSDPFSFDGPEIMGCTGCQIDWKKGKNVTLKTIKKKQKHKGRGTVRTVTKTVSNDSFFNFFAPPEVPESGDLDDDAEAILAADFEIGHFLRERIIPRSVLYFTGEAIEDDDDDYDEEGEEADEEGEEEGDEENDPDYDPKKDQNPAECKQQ
UniProt Q12905: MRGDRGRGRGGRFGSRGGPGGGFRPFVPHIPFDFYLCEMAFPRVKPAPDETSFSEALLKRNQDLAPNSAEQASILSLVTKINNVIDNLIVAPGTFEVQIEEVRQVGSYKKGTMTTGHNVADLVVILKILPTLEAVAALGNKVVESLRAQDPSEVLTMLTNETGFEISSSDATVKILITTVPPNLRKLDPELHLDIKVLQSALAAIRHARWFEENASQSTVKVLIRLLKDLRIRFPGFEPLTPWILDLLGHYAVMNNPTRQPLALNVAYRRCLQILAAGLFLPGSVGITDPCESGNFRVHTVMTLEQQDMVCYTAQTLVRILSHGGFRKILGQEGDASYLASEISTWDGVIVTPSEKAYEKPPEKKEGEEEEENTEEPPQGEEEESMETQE
UniProt Q9P2M7: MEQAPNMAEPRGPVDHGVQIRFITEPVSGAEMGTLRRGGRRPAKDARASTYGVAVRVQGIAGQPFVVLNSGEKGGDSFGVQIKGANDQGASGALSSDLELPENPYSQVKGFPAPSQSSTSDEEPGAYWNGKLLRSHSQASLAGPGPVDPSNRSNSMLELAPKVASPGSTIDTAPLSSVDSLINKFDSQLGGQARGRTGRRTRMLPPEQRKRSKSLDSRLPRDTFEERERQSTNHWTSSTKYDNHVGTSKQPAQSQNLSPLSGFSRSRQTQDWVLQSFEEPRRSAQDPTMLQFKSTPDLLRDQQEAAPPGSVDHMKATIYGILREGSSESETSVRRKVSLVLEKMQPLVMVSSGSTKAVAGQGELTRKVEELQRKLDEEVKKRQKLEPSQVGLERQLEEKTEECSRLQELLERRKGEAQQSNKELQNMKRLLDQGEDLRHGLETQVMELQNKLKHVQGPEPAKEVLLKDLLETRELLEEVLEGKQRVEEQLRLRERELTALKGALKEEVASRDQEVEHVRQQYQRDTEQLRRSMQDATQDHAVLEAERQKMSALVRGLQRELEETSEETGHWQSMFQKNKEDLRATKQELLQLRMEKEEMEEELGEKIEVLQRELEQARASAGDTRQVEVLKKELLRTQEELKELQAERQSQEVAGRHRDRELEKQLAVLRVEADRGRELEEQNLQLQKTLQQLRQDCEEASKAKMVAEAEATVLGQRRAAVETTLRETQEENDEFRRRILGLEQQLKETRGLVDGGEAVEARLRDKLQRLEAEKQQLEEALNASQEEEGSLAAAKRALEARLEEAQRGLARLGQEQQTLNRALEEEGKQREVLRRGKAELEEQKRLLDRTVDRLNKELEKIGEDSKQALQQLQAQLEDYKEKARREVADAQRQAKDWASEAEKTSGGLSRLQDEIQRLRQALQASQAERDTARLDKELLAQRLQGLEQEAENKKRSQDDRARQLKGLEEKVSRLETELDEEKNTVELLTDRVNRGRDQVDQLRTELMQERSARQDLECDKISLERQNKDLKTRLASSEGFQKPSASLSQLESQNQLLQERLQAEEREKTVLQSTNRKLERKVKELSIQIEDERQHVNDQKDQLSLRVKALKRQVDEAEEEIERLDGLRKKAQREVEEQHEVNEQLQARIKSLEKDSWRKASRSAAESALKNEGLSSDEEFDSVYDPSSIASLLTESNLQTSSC
UniProt P07910: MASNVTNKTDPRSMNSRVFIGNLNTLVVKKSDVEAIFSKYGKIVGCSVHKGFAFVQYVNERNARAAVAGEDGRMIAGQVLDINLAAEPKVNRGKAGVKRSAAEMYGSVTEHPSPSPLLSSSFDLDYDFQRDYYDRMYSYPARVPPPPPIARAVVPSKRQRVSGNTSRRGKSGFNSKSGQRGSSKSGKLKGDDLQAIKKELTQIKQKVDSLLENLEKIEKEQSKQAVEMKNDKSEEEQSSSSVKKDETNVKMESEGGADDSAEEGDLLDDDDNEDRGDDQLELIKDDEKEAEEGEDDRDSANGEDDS
UniProt Q13506: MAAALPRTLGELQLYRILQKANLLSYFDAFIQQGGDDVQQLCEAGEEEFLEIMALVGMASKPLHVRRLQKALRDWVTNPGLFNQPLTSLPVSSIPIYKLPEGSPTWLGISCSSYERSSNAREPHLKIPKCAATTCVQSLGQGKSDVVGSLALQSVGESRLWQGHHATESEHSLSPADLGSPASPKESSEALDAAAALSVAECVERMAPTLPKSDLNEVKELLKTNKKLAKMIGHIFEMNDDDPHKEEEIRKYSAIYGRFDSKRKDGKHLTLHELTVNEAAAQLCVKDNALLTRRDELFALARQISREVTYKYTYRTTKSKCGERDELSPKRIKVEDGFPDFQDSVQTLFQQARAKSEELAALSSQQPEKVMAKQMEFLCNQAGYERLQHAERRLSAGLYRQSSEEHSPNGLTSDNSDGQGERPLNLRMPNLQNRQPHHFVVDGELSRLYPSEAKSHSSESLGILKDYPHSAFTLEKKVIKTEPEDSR
UniProt Q8WY36: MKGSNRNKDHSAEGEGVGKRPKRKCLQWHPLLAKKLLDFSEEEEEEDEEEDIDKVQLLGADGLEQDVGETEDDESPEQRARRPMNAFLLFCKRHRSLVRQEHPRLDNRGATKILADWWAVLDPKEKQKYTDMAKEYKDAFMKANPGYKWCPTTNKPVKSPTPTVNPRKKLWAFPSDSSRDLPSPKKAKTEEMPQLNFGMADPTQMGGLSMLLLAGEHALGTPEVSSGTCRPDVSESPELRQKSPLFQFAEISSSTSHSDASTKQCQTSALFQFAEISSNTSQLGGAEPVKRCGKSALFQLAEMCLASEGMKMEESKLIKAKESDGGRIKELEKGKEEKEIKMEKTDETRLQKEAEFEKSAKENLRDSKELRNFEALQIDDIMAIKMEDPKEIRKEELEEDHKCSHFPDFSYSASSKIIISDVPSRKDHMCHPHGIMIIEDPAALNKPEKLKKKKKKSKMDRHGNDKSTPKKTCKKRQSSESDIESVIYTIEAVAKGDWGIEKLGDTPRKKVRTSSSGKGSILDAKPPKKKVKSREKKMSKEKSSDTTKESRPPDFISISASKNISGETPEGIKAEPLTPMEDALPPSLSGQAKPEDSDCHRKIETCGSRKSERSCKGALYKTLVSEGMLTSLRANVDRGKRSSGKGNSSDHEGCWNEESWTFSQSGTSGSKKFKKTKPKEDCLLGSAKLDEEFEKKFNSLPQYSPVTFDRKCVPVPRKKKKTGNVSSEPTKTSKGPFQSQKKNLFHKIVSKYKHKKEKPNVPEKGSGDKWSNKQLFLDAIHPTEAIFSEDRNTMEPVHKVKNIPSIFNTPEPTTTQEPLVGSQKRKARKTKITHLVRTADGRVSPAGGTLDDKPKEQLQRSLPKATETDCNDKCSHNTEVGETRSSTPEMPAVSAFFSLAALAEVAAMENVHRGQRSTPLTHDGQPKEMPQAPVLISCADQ
UniProt P53801: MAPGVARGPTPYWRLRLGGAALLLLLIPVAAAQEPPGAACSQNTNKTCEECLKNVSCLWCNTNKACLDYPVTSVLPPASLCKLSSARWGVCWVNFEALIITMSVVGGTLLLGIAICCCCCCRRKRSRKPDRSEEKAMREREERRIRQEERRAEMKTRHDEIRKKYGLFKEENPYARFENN
UniProt Q16773: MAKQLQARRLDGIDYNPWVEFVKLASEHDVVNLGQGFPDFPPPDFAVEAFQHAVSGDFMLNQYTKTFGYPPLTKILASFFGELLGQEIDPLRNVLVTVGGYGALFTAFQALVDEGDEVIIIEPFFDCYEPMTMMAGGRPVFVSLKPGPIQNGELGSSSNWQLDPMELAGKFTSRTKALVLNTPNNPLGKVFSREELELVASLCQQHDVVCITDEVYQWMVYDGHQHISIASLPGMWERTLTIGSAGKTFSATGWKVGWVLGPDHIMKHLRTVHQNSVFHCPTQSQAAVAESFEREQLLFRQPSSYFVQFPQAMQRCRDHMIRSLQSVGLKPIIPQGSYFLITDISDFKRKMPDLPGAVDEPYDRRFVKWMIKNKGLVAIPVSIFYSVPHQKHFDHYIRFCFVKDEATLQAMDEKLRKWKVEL
UniProt P63098, whole entry, looked up: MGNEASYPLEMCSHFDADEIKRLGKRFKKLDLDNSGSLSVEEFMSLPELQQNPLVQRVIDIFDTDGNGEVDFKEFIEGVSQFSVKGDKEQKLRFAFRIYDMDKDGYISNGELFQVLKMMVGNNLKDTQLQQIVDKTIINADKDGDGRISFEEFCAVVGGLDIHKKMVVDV
UniProt Q32P44: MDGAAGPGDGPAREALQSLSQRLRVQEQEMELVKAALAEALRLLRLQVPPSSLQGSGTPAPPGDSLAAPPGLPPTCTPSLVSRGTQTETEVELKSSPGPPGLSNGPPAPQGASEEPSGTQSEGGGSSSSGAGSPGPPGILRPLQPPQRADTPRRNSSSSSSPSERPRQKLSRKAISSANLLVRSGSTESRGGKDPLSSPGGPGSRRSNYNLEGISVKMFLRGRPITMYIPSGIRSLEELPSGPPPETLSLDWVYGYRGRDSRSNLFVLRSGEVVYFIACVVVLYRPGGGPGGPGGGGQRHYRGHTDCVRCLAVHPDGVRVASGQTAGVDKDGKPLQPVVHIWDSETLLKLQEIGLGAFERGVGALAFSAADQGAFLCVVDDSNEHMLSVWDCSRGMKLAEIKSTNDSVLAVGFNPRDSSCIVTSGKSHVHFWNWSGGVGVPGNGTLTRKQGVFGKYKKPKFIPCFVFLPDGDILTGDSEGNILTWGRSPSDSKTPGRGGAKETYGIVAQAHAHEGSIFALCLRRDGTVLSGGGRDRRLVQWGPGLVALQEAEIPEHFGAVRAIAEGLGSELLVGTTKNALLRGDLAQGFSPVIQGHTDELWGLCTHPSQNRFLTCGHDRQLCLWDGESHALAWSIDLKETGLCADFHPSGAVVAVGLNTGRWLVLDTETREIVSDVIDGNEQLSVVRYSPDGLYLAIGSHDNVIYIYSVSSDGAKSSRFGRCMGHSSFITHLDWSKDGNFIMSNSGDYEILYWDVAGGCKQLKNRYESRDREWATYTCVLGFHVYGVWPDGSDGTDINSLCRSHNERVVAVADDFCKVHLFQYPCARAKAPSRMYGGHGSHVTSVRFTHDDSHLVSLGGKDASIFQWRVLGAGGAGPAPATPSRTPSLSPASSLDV
UniProt Q99439: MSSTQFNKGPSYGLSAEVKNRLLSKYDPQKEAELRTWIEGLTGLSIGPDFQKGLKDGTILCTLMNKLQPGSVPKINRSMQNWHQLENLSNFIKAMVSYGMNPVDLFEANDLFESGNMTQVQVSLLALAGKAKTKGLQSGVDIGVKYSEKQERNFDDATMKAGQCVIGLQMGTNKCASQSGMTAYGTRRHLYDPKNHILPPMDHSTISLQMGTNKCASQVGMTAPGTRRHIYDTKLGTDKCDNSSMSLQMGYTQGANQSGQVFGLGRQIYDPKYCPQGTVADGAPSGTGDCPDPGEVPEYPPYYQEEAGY

| Target | NP40-soluble protein abundance (concentration: 0.1mM) | NP40-soluble protein abundance (concentration: 0.5mM) |
| --- | --- | --- |
| UniProt A3KMH1 and related entries | 0.9929 ± 0.0084 | 0.937 ± 0.069 |
| C9J0I9 and related entries (UniProt Q86WB0) | 0.9893 ± 0.0015 | 1.01 ± 0.041 |
| C9J0Q5 and related entries (UniProt Q9Y618) | 1 ± 0.014 | 0.994 ± 0.043 |
| C9JDQ1 and related entries (UniProt Q13724) | 1 ± 0.011 | 0.98 ± 0.035 |
| D3YTK1 and related entries (UniProt Q9C0K0) | 1.03 ± 0.073 | 1.04 ± 0.058 |
| B4DH23 and related entries (UniProt Q9NTJ4) | 1.02 ± 0.023 | 1.01 ± 0.064 |
| E5RHW4 and related entries (UniProt O94905) | 1.01 ± 0.08 | 1.03 ± 0.097 |
| B0QXZ9 and related entries (UniProt Q9UGU5) | 1.01 ± 0.036 | 1.01 ± 0.018 |
| B4E0T2 and related entries (UniProt P50542) | 0.994 ± 0.021 | 0.976 ± 0.037 |
| B7Z9C2 and related entries (UniProt P55209) | 0.995 ± 0.012 | 1 ± 0.017 |
| B4DJL6 and related entries (UniProt Q96SY0) | 0.98 ± 0.027 | 0.98 ± 0.024 |
| B4E2Q0 and related entries (UniProt P98194) | 1 ± 0.051 | 0.979 ± 0.032 |
| B4DY09 and related entries (UniProt Q12905) | 1.03 ± 0.026 | 1.089 ± 0.0086 |
| B5MBX0 and related entries (UniProt Q96FF9) | 1.02 ± 0.0095 | 0.999 ± 0.031 |
| A6PVU7 and related entries (UniProt Q9P2M7) | 1.03 ± 0.031 | 1.03 ± 0.032 |
| B4E107 and related entries (UniProt O95260) | 0.9888 ± 0.009 | 1.01 ± 0.015 |
| UniProt A4D1P6 and related entries | 1.032 ± 0.009 | 1.04 ± 0.074 |
| B2R5W2 and related entries (UniProt P07910) | 0.954 ± 0.15 | 1.03 ± 0.11 |
| A9X3U0 and related entries (UniProt Q96GF1) | 0.988 ± 0.048 | 1.02 ± 0.029 |
| B5MCH7 and related entries (UniProt Q9Y6E2) | 1 ± 0.023 | 1.01 ± 0.041 |
| B4DV51 and related entries (UniProt P62826) | 1.01 ± 0.012 | 1.04 ± 0.05 |
| B4DZS0 and related entries (UniProt O76075) | 1 ± 0.035 | 0.97 ± 0.052 |
| B8ZZS2 and related entries (UniProt Q13506) | 0.977 ± 0.023 | 1.01 ± 0.012 |
| UniProt A2RRP1 and related entries | 1.01 ± 0.051 | 0.962 ± 0.1 |
| B1AKN5 and related entries (UniProt Q12857) | 1.01 ± 0.066 | 1.01 ± 0.047 |
| C9JA69 and related entries (UniProt Q8WY36) | 1 ± 0.025 | 1.02 ± 0.075 |

| Target | NP40-soluble protein abundance (concentration: 0.1mM) | NP40-soluble protein abundance (concentration: 0.5mM) |
| --- | --- | --- |
| C9JF66 and related entries (UniProt Q6PIZ9) | 0.986 ± 0.013 | 0.994 ± 0.014 |
| A2IDA3 and related entries (UniProt P29372) | 1.01 ± 0.024 | 1.01 ± 0.045 |
| C9JYM0 and related entries (UniProt O75817) | 1 ± 0.015 | 0.9923 ± 0.0056 |
| C9JZ81 and related entries (UniProt P13010) | 0.999 ± 0.018 | 1.01 ± 0.046 |
| C9JBL1 and related entries (UniProt Q9Y6A9) | 0.946 ± 0.018 | 1.02 ± 0.018 |
| D4Q8H0 and related entries (UniProt Q9NYL2+D4Q8H0) | 1.02 ± 0.0072 | 1.03 ± 0.066 |
| E5RFJ1 and related entries (UniProt Q96MF7) | 1.01 ± 0.026 | 0.979 ± 0.028 |
| B0YIW6 and related entries (UniProt P48444) | 1.013 ± 0.0037 | 0.999 ± 0.029 |
| UniProt C9JLW8 and related entries | 0.99607 ± 0.00032 | 0.981 ± 0.037 |
| C9JYJ8 and related entries (UniProt Q9BWE0) | 0.981 ± 0.012 | 1 ± 0.017 |
| B1AMW1 and related entries (UniProt P19256) | 0.996 ± 0.045 | 1.09 ± 0.11 |
| A8MZH8 and related entries (UniProt P53801) | 1.02 ± 0.071 | 1 ± 0.072 |
| A8MWD9 and related entries (UniProt P62308+A8MWD9) | 1.09 ± 0.024 | 1.07 ± 0.029 |
| B5ME19 and related entries (UniProt Q99613+B5ME19) | 1.05 ± 0.041 | 1.03 ± 0.038 |
| B4DRG3 and related entries (UniProt Q9H6V9+B5MCE2+B5MDU6+B4DRG3) | 1.03 ± 0.022 | 1.01 ± 0.025 |
| B8ZZC8 and related entries (UniProt Q9NRN9) | 0.992 ± 0.0095 | 1.001 ± 0.008 |
| B1AMT0 and related entries (UniProt Q8N3U4) | 1.02 ± 0.06 | 0.985 ± 0.084 |
| C9JFR7 and related entries (UniProt P99999) | 0.961 ± 0.076 | 1.07 ± 0.12 |
| B1AKL4 and related entries (UniProt Q9NRA8) | 0.991 ± 0.027 | 0.999 ± 0.058 |
| B0QY89 and related entries (UniProt Q9Y262) | 1.04 ± 0.019 | 1.02 ± 0.085 |
| C9J381 and related entries (UniProt P20839) | 1 ± 0.014 | 0.973 ± 0.036 |
| B7ZBM3 and related entries (UniProt Q8IVH2) | 0.957 ± 0.024 | 0.967 ± 0.0099 |
| A2RUF3 and related entries (UniProt O75044) | 0.994 ± 0.023 | 0.982 ± 0.02 |
| C9JNV2 and related entries (UniProt P41223) | 1.04 ± 0.019 | 1.04 ± 0.042 |
| E5RFU2 and related entries (UniProt P34913) | 0.993 ± 0.037 | 0.984 ± 0.03 |
| UniProt A2VDJ0 and related entries | 0.984 ± 0.03 | 0.978 ± 0.035 |

| Target | NP40-soluble protein abundance (concentration: 0.1mM) | NP40-soluble protein abundance (concentration: 0.5mM) |
| --- | --- | --- |
| B9A018 and related entries (UniProt Q53GS9) | 1.038 ± 0.0095 | 1.01 ± 0.072 |
| C9J406 and related entries (UniProt Q16891) | 0.985 ± 0.053 | 1 ± 0.055 |
| B7Z4W5 and related entries (UniProt Q16773+B7Z4W5) | 1.05 ± 0.064 | 1.05 ± 0.19 |
| D6RFW1 and related entries (UniProt Q96EQ0) | 0.989 ± 0.038 | 1.06 ± 0.065 |
| C9JA08 and related entries (UniProt Q96D46) | 0.996 ± 0.025 | 0.997 ± 0.012 |
| FAM171A2 (UniProt A8MVW0) | 0.979 ± 0.019 | 0.983 ± 0.021 |
| B1AMS2 and related entries (UniProt Q14141) | 0.984 ± 0.032 | 1.01 ± 0.031 |
| C9JAK5 and related entries (UniProt P18085) | 1.11 ± 0.048 | 1.04 ± 0.12 |
| B7ZC38 and related entries (UniProt Q9NR46) | 0.968 ± 0.042 | 0.982 ± 0.016 |
| A6NFX8 and related entries (UniProt Q9UKK9) | 1.04 ± 0.025 | 1.02 ± 0.065 |
| YDJC (UniProt A8MPS7) | 0.996 ± 0.011 | 0.964 ± 0.017 |
| C9JJQ8 and related entries (UniProt P68366) | 1.04 ± 0.014 | 0.998 ± 0.035 |
| D3YTA9 and related entries (UniProt H7BYZ3+F6U1T9+P63098+D3YTA9) | 0.967 ± 0.017 | 1.04 ± 0.057 |
| D6RER5 and related entries (UniProt Q9NVA2) | 0.97 ± 0.023 | 1 ± 0.023 |
| C9J713 and related entries (UniProt Q96IZ7) | 1.05 ± 0.021 | 1.02 ± 0.056 |
| KIAA1147 (UniProt A4D1U4) | 1.01 ± 0.02 | 1 ± 0.011 |
| E2QRF9 and related entries (UniProt O75496) | 0.981 ± 0.032 | 0.993 ± 0.016 |
| D6RF48 and related entries (UniProt Q9P2W9) | 1 ± 0.021 | 0.981 ± 0.012 |
| C9J7Z4 and related entries (UniProt Q8NCE0) | 0.992 ± 0.037 | 0.977 ± 0.044 |
| B7Z2L0 and related entries (UniProt Q9UHQ4) | 0.9855 ± 0.0061 | 1.01 ± 0.066 |
| B7WPE2 and related entries (UniProt Q32P44) | 1.01 ± 0.016 | 0.985 ± 0.017 |
| UniProt B7ZLF3 | 1 ± 0.058 | 1.02 ± 0.041 |
| D6R9C6 and related entries (UniProt P27707) | 1.01 ± 0.033 | 1.04 ± 0.045 |
| B4DDF4 and related entries (UniProt Q99439) | 0.978 ± 0.039 | 1.03 ± 0.062 |

A few values from the entries so far.
For NP40-soluble protein abundance (concentration: 0.1mM), KIAA1147 (UniProt A4D1U4) is listed with 1.01 ± 0.02
For NP40-soluble protein abundance (concentration: 0.1mM), D6R9C6 and related entries (UniProt P27707) is listed with 1.01 ± 0.033
For NP40-soluble protein abundance (concentration: 0.5mM), D3YTA9 and related entries (UniProt H7BYZ3+F6U1T9+P63098+D3YTA9) is listed with 1.04 ± 0.057

Reference: the supplement of paper PMC6411743
